Experimental data from patent US20240156980A1 (Molecular Partners, published 2024).
No constants are given. Whether binding was seen depends on the method and setting. Some binding calls cover weakened binding; strength is not graded here. For part of these data: Tags and fused reporters may be left off the sequences shown.

Sequences of proteins named here, by UniProt entry; tags and fusion partners are left off. A change or cut given only in a name is not applied to a line headed by its entry.
UniProt P07766: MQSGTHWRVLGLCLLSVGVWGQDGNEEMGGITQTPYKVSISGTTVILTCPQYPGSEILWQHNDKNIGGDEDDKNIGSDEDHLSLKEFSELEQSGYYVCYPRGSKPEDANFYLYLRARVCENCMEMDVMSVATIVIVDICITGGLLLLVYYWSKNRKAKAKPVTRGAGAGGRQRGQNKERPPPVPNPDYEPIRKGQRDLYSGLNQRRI

What was measured:
[1] = target: T1, human CD3 on T cells (human, UniProt P07766 23-207; P09693 23-182; P04234 22-171); test: flow cytometry on Jurkat wt cells
[2] = target: T1, human CD3 on T cells; test: flow cytometry on Jurkat cells, detection with anti-DARPin antibodies and anti-rabbit IgG Alexa Fluor 488, MFI [column T-cell binding]
[3] = target: recombinant human EGFR extracellular domain (human) (UniProt P00533); test: SPR
[4] = target: recombinant mouse EGFR extracellular domain (mouse) (UniProt Q01279); test: SPR

binding [1] | binding [2] | binding [3] | binding [4] | Binder
binds | binds |  |  | Active TCE EGFR-C7v119-6His (designed binder, Bispecific ankyrin repeat protein; also called active TCE (C7v119 comprising construct); anti-EGFR x anti-CD3) MGSDLGYKLLRAAFHGQDDEVRILLAAGADVNAKDLIGQTPLHNAAWVGHLEIVEVLLKAGADVNAKDYYGNTPLHLAAHDGHLEIVEVLLKAGADVNAQDTWGETPADLATNAGHEDIAEVLQKAAGSPTPTPTTPTPTPTTPTPTPTGSDLGQKLLEAAWAGQDDEVRELLKAGADVNAKNSRGWTPLHTAAQTGHLEIFEVLLKAGADVNAKDDKGVTPLHLAAALGHLEIVEVLLKAGADVNAQDSWGTTPADLAAKYGHEDIAEVLQKAAGSHHHHHH
binds | binds |  |  | Active TCE EGFR-C7v122-6His (designed binder, Bispecific ankyrin repeat protein; also called active TCE (C7v122 comprising construct); anti-EGFR x anti-CD3) MGSDLGYKLLRAAFHGQDDEVRILLAAGADVNAKDLIGQTPLHNAAWVGHLEIVEVLLKAGADVNAKDYYGNTPLHLAAHDGHLEIVEVLLKAGADVNAQDTWGETPADLATNAGHEDIAEVLQKAAGSPTPTPTTPTPTPTTPTPTPTGSDLGQKLLEAAWAGQDDEVRELLKAGADVNAKNSRGWTPLHTAAQTGHLEIFEVLLKAGADVNAKNDKRVTPLHLAAALGHLEIVEVLLKAGADVNARDSWGTTPADLAAKYGHQDIAEVLQKAAGSHHHHHH
 |  | binds | binds | anti-EGFR DARPin (biotinylated, monovalent EGFR-specific ankyrin repeat domain) (designed binder, biotinylated (site not stated)) MGSDLGYKLLRAAFHGQDDEVRILLAAGADVNAKDLIGQTPLHNAAWVGHLEIVEVLLKAGADVNAKDYYGNTPLHLAAHDGHLEIVEVLLKAGADVNAQDTWGETPADLATNAGHEDIAEVLQKAA
